These are yes or no findings as the source states them, for the method shown. Binding seen in cells or lysates may run through a third protein. A yes stands for co-enrichment or nearness to the bait. Other partners may have been found.

Chains of the proteins cited; added tags and fusions are not shown. Residues count along the entry.
UniProt P45975, residues 1-152: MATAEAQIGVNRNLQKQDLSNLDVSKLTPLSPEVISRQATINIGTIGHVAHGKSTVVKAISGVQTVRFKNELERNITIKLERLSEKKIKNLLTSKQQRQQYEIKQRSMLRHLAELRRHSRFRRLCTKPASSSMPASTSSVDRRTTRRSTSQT
UniProt P19109: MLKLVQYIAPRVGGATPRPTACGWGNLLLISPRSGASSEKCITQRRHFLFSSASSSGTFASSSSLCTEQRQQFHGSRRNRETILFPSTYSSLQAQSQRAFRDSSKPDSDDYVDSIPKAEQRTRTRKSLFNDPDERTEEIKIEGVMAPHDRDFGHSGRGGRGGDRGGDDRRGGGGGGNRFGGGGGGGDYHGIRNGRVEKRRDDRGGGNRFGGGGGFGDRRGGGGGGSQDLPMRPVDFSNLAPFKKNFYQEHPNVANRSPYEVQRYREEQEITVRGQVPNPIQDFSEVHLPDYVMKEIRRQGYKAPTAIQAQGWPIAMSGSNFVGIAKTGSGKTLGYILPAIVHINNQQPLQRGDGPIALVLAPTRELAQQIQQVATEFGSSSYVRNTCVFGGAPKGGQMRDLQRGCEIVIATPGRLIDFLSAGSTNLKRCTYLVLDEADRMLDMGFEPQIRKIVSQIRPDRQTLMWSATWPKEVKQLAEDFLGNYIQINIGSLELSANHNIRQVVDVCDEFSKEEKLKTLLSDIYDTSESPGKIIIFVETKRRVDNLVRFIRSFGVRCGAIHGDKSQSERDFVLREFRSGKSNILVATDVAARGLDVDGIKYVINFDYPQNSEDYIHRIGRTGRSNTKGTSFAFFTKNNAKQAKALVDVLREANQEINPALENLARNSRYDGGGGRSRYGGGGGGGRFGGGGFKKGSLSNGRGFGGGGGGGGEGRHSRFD

For this assay, the target named is GST SU(VAR)3-9 NT (aa 1–152) (Drosophila melanogaster) (UniProt P45975). Put plainly: affinity purification with mass spectrometry; GST SU(VAR)3-9 NT on a GSTrap FF column connected behind a GST column; Drosophila 0–12 h embryo nuclear extract loaded; wash 200 mM NaCl, 20 mM Tris-HCl pH 8.0, 1 mM EDTA, 0.5% Nonidet P-40; step elution 250, 500 and 750 mM; stained band cut out for mass spectrometry; only the target purified.

Turning to “Rm62 (endogenous, Drosophila embryo nuclear extract) (from UniProt P19109 1-719)”, the binding result is recorded as “binds”.

(Values after PMC3107242.)
